PubChem BioAssay AID1224829 – NIAID | 2016

Test: 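Follow-up of TLR4-NF-kappaB regulators using six separate siRNAs for each gene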 (follow-up of hits)
Cells: mouse RAW264.7 G9 macrophage reporter cells
Reagents: single siRNA against mouse genes, 100 nM
Duration: 2 days of siRNA knock-down, then 40 min of LPS before fixing
Challenge: LPS (Salmonella minnesota R595) at 10 ng/ml
Measurement: 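Imaging of GFP-p65 after 40 min of LPS; nuclear over perinuclear ring intensity ratio, scaled to plate median and non-targeting control wells, given as z-score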
Reading the numbers: p65 translocation z-score: higher = more nuclear NF-kappaB p65 after LPS
Call rule: 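An siRNA is called active when the mean z-score of its two replicates is above 2 or below -2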
Meaning of the calls: active = changed p65 translocation (either direction); inactive = no clear change
The deposit covers about 3,800 reagents; shown is a random part of them. 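Calls cover raised and lowered translocation; gene median uses one vendor's three siRNAs; qiagen siRNAs acted more weakly than ambion siRNAs.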 A number with no mark means an inactive call. Reagents against one gene are numbered here. Not all columns of the deposit are shown.

{"gene knocked down": "Zfp57", "siRNA no.": 1, "siRNA vendor or control pool": "ambion single siRNA", "p65 translocation z-score, replicate mean": 0.0903}
{"gene knocked down": "Zfp57", "siRNA no.": 2, "siRNA vendor or control pool": "ambion single siRNA", "p65 translocation z-score, replicate mean": 1.67}
{"gene knocked down": "Zfp57", "siRNA no.": 3, "siRNA vendor or control pool": "ambion single siRNA", "p65 translocation z-score, replicate mean": "-3.56 (active)"}
{"gene knocked down": "Zfp57", "siRNA no.": 4, "siRNA vendor or control pool": "qiagen single siRNA", "p65 translocation z-score, replicate mean": 1.79}
{"gene knocked down": "Zfp57", "siRNA no.": 5, "siRNA vendor or control pool": "qiagen single siRNA", "p65 translocation z-score, replicate mean": 0.773}
{"gene knocked down": "Zfp57", "siRNA no.": 6, "siRNA vendor or control pool": "qiagen single siRNA", "p65 translocation z-score, replicate mean": "-3.32 (active)"}
{"gene knocked down": "Hsp90b1", "siRNA no.": 1, "siRNA vendor or control pool": "ambion single siRNA", "p65 translocation z-score, replicate mean": "2.25 (active)"}
{"gene knocked down": "Hsp90b1", "siRNA no.": 2, "siRNA vendor or control pool": "ambion single siRNA", "p65 translocation z-score, replicate mean": "-3.03 (active)"}
{"gene knocked down": "Hsp90b1", "siRNA no.": 3, "siRNA vendor or control pool": "ambion single siRNA", "p65 translocation z-score, replicate mean": 0.966}
{"gene knocked down": "Hsp90b1", "siRNA no.": 4, "siRNA vendor or control pool": "qiagen single siRNA", "p65 translocation z-score, replicate mean": "2.03 (active)"}
{"gene knocked down": "Hsp90b1", "siRNA no.": 5, "siRNA vendor or control pool": "qiagen single siRNA", "p65 translocation z-score, replicate mean": -0.447}
{"gene knocked down": "Hsp90b1", "siRNA no.": 6, "siRNA vendor or control pool": "qiagen single siRNA", "p65 translocation z-score, replicate mean": "-3.27 (active)"}
{"gene knocked down": "Or5d39", "siRNA no.": 1, "siRNA vendor or control pool": "ambion single siRNA", "p65 translocation z-score, replicate mean": -1.18}
{"gene knocked down": "Or5d39", "siRNA no.": 2, "siRNA vendor or control pool": "ambion single siRNA", "p65 translocation z-score, replicate mean": "-4.46 (active)"}
{"gene knocked down": "Or5d39", "siRNA no.": 3, "siRNA vendor or control pool": "ambion single siRNA", "p65 translocation z-score, replicate mean": "-3.72 (active)"}
{"gene knocked down": "Or5d39", "siRNA no.": 4, "siRNA vendor or control pool": "qiagen single siRNA", "p65 translocation z-score, replicate mean": "4.25 (active)"}
{"gene knocked down": "Or5d39", "siRNA no.": 5, "siRNA vendor or control pool": "qiagen single siRNA", "p65 translocation z-score, replicate mean": -0.725}
{"gene knocked down": "Or5d39", "siRNA no.": 6, "siRNA vendor or control pool": "qiagen single siRNA", "p65 translocation z-score, replicate mean": -0.988}
{"gene knocked down": "Eif3i", "siRNA no.": 1, "siRNA vendor or control pool": "ambion single siRNA", "p65 translocation z-score, replicate mean": 1.29}
{"gene knocked down": "Eif3i", "siRNA no.": 2, "siRNA vendor or control pool": "ambion single siRNA", "p65 translocation z-score, replicate mean": "2.81 (active)"}
{"gene knocked down": "Eif3i", "siRNA no.": 3, "siRNA vendor or control pool": "ambion single siRNA", "p65 translocation z-score, replicate mean": "-4.12 (active)"}
{"gene knocked down": "Eif3i", "siRNA no.": 4, "siRNA vendor or control pool": "qiagen single siRNA", "p65 translocation z-score, replicate mean": -0.412}
{"gene knocked down": "Eif3i", "siRNA no.": 5, "siRNA vendor or control pool": "qiagen single siRNA", "p65 translocation z-score, replicate mean": -1.16}
{"gene knocked down": "Eif3i", "siRNA no.": 6, "siRNA vendor or control pool": "qiagen single siRNA", "p65 translocation z-score, replicate mean": -0.867}

3 neighbouring reagents already listed, for reference:
{"gene knocked down": "Zfp57", "siRNA no.": 3, "siRNA vendor or control pool": "ambion single siRNA", "p65 translocation z-score, replicate mean": "-3.56 (active)"}
{"gene knocked down": "Zfp57", "siRNA no.": 4, "siRNA vendor or control pool": "qiagen single siRNA", "p65 translocation z-score, replicate mean": 1.79}
{"gene knocked down": "Zfp57", "siRNA no.": 5, "siRNA vendor or control pool": "qiagen single siRNA", "p65 translocation z-score, replicate mean": 0.773}
